According to paper doi:10.1101/2025.08.07.669073 (bioRxiv, 2025):
These are yes or no findings as the source states them, for the method shown. In cells and extracts the contact can be indirect. Some entries that bind do so weakly or less than the wild type. For part of these data: Where a sequence is shown, tags or fusion partners need not be part of it.

Sequences of proteins named here, by UniProt entry; tags and fusion partners are left off.
UniProt Q9HD20: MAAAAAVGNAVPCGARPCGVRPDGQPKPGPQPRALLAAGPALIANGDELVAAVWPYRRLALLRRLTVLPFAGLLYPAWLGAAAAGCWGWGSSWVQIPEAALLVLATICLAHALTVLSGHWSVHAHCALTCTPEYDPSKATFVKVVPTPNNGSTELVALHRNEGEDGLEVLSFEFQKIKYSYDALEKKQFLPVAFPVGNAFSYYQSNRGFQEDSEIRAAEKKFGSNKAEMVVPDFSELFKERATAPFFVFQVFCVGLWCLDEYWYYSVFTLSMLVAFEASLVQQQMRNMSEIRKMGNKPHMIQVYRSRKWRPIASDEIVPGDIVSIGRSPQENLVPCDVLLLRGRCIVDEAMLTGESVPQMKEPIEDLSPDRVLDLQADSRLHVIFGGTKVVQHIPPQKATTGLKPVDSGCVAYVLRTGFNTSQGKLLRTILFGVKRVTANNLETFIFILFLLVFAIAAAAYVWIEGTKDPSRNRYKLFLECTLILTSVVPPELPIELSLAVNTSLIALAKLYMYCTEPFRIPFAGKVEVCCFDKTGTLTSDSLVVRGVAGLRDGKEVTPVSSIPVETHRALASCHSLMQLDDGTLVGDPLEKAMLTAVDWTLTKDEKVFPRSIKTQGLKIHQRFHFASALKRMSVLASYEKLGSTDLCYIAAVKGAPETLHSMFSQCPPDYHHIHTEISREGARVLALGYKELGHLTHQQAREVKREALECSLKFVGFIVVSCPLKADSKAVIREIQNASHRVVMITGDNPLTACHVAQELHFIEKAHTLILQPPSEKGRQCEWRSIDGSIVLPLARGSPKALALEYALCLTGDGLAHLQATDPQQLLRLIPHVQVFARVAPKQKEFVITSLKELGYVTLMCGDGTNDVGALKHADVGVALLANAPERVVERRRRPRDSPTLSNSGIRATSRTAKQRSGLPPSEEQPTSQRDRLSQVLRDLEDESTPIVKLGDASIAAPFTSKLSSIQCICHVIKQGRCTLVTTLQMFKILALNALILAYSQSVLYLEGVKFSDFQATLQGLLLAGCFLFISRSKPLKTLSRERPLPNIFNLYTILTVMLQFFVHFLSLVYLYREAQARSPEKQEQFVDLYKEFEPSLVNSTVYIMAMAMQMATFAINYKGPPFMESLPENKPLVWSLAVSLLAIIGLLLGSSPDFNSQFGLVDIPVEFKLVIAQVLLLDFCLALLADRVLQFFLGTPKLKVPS

B1: yeast Emc10, subunit in the recombinant EMC:Spf1 complex (natural protein)
chain: ADILQLSYSDDAKDAIPLGTFEIDSTSDGNVTVTTVNIQDVEVSGEYCLNAQIEGKLDMPCFSYMKLRTPLKYDLIVDVDEDNEVKQVSLSYDETNDAITATVRYPEAGPTAPVTKLKKKTKTYADKKASKNKDGSTAQFEEDEEVKEVSWFQKNWKMLLLGLLIYNFVAGSAKKQQQGGAGADQKTE

Legend:
Assay in all cases: co-IP
[1] = target: T1, human EMC7 (wt), transfected, tagged (human) (UniProt Q9NPA0)
T1 sequence: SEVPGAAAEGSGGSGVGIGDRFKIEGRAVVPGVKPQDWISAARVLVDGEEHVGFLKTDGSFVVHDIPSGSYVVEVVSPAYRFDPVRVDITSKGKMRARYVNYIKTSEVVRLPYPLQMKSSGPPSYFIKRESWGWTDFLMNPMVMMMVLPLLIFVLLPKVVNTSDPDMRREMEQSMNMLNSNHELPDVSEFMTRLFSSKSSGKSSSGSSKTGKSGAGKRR

[2] = target: T2, human EMC7 lacking the entire TMD and C-terminal region (Δ159-242) (human) (UniProt Q9NPA0)
T2 sequence: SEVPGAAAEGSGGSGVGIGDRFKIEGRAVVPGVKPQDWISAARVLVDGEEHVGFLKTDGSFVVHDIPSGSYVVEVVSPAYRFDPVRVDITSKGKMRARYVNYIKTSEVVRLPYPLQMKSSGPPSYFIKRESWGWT

[3] = target: T3, yeast Emc5 with C-terminal GFP, endogenous locus (S. cerevisiae) (UniProt P40540)
T3 sequence: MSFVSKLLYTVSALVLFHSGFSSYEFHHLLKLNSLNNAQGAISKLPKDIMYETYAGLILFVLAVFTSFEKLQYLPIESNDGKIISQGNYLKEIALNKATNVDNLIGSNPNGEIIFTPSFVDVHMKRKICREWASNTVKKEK

Row | Molecule | binding [1] | binding [2] | binding [3]
1 | ATP13A1, endogenous, HEK293T (from UniProt Q9HD20 1-1204) | binds | no binding | –
2 | B1 | – | – | binds
